A short description of this data set: general procedure: solution-phase peptide synthesis; dicyclohexylcarbodiimide / N-hydroxysuccinimide. As to conditions: late stage modification step.

Regarding “((2R,3R)-3-((S)-1-((3R,4S,5S)-4-((S)—N,3-dimethyl-2-((S)-3-methyl-2-(methyl(2-(methylthio)ethyl)amino)butanamido)butanamido)-3-methoxy-5-methylheptanoyl)pyrrolidin-2-yl)-3-methoxy-2-methylpropanoyl)-L-phenylalanine”, the step yield worked out at 46.9%. To “(S)-2-((2R,3R)-3-((S)-1-((3R,4S,5S)-4-((S)-2-((S)-2-((2-mercaptoethyl)(methyl)amino)-3-methylbutanamido)-N,3-dimethylbutanamido)-3-methoxy-5-methylheptanoyl)pyrrolidin-2-yl)-3-methoxy-2-methylpropanamido)-3-phenylpropanoic acid” belongs 77.0%. With “(S)-2-((2R,3R)-3-((S)-1-((3S,6S,14S,17S,20S, 21R)-3-amino-20-((S)-sec-butyl)-14,17-diisopropyl-21-methoxy-2,6,13,19-tetramethyl-4,7,15,18-tetraoxo-10-thia-5,8,13,16,19-pentaazatricosan-23-oyl)pyrrolidin-2-yl)-3-methoxy-2-methylpropanamido)-3-p”, the step yield is on record as 87.0%.

Values taken from patent US20240108744A1 (priority 2022, published 2024).
